PubChem BioAssay AID1159584 – Peter MacCallum Cancer Centre | 2016

- Aim: 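Knock-downs that harm CDH1-null cells more than parental MCF10A cells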 (primary screen)
- Cell system: human MCF10A breast epithelial cells, parental and CDH1-null
- Reagents: siRNA against human genes
- Read-out: 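Cell viability by CellTiter-Glo ATP luminescence, each line scaled to the mean of mock wells across plates, then CDH1-null over parental ratio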
- Scale: CDH1-null / parental viability ratio: higher = CDH1-null cells survive relatively better than parental; CDH1-null viability vs mock: higher = more viable CDH1-null cells; parental viability vs mock: higher = more viable parental cells
Here is a random part of about 18,000 reagents. No sequences are given here. Not given: the amount of reagent, the time to read-out.

gene | CDH1-null / parental viability ratio | CDH1-null viability vs mock (fraction of mock) | parental viability vs mock (fraction of mock)
AKIRIN2 | 0.77 | 0.44 | 0.57
OR2AG2 | 1.15 | 0.68 | 0.59
ELAPOR1 | 0.93 | 0.78 | 0.84
WDR20 | 1.11 | 0.71 | 0.64
MEGF10 | 1.05 | 0.67 | 0.64
FAIM | 1.15 | 1.13 | 0.98
PLGRKT | 1.08 | 0.8 | 0.74
DRC8 | 0.93 | 0.76 | 0.82
DDB2 | 1.16 | 1.02 | 0.88
ZNF146 | 0.99 | 0.86 | 0.87
MAPKAPK5 | 0.81 | 0.67 | 0.83
LINC01559 | 0.91 | 1.18 | 1.29
PSMC4 | 0.81 | 0.34 | 0.42
CHMP5 | 0.89 | 0.66 | 0.74
ZYG11B | 0.89 | 0.76 | 0.85
CCT8L1P | 0.85 | 0.74 | 0.87
SLC19A4P | 0.99 | 0.78 | 0.79
CLNK | 1.49 | 0.88 | 0.59
XAGE2 | 1.02 | 0.55 | 0.54
HCST | 0.76 | 0.83 | 1.09
EIF3C | 0.7 | 0.26 | 0.37
ODAM | 1.02 | 0.82 | 0.8
TPBG | 0.8 | 0.56 | 0.7
USP54 | 0.93 | 0.56 | 0.6

8 entries from above, reduced to “CDH1-null / parental viability ratio”:
AKIRIN2	0.77
OR2AG2	1.15
ELAPOR1	0.93
WDR20	1.11
MEGF10	1.05
FAIM	1.15
PLGRKT	1.08
DRC8	0.93

Further reagents follow.
gene | CDH1-null / parental viability ratio | CDH1-null viability vs mock (fraction of mock) | parental viability vs mock (fraction of mock)
DNAJB5 | 0.87 | 0.88 | 1.01
AQP12A | 1.07 | 0.6 | 0.56
MMS19 | 1.02 | 1.06 | 1.04
NADK2 | 0.88 | 0.74 | 0.84
KRT37 | 0.92 | 0.79 | 0.86
ZNF287 | 1.27 | 1.02 | 0.8
FOLH1 | 1.21 | 0.51 | 0.42
MRPL34 | 1.23 | 0.76 | 0.62
PDPR | 0.9 | 0.69 | 0.77
CDK2AP1 | 1.31 | 0.81 | 0.62
SERTM1 | 1.1 | 0.89 | 0.81
IRX3 | 1.31 | 0.68 | 0.52
CCDC117 | 1.08 | 0.82 | 0.76
TMEM116 | 0.94 | 0.77 | 0.82
PCGF1 | 1 | 0.98 | 0.98
TMLHE | 1.04 | 0.76 | 0.73
GLCE | 1.15 | 0.99 | 0.86
ASCL2 | 1.16 | 1.07 | 0.92
ARL6 | 1.13 | 0.97 | 0.86
SRA1 | 1.07 | 0.49 | 0.46
LRRC61 | 1.08 | 0.41 | 0.38
TIGD7 | 0.97 | 0.95 | 0.98
SIX1 | 0.99 | 1 | 1.01
ALDOB | 0.95 | 0.76 | 0.8
LUZP2 | 1.03 | 0.72 | 0.7
STON2 | 0.91 | 0.4 | 0.44
KIR2DL1 | 0.81 | 0.6 | 0.74
C11orf40 | 0.9 | 0.64 | 0.71
OR51M1 | 0.8 | 0.32 | 0.4
BPIFB2 | 1.1 | 0.79 | 0.72
FCHO2 | 0.82 | 0.64 | 0.78
C3orf36 | 1.12 | 0.96 | 0.86
UBAC1 | 0.87 | 0.7 | 0.8
ECHDC3 | 0.91 | 0.8 | 0.88
CHD1 | 0.92 | 0.97 | 1.05
STAMBPL1 | 0.97 | 0.6 | 0.62
IER5L | 0.93 | 0.82 | 0.88
PTCH2 | 1.21 | 0.74 | 0.61
CRABP1 | 1.05 | 0.58 | 0.55
ARL6IP4 | 1.11 | 0.91 | 0.82
HTR6 | 0.97 | 0.86 | 0.89
TMEM200A | 1.04 | 0.88 | 0.85
COL7A1 | 1.13 | 1.05 | 0.93
KRTAP10-2 | 0.87 | 0.7 | 0.8
